Measurements reported in PubChem BioAssay AID1259308 (NCATS, 2017).
This is a random part of about 59,000 reagents. Over the whole deposit, about 1,510 (2.6%) are marked active. 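Calls use total luciferase alone and ignore viability, so some active siRNAs may act by altering cell number.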 Entries without a mark were called inactive. The numbers tell different reagents against one gene apart. Further read-outs or replicates are left out here.

Screen: 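Genes whose loss raises luciferase production in HEK293 cells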 (primary screen)
Cells: human HEK293 embryonic kidney cells stably expressing firefly luciferase (HEK-CMV-Luc2-Hygro)
Knock-down reagent: single siRNA against human genes, 0.8 pmol siRNA per well
Duration: 72 h
Measured: 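Luciferase light (ONE-Glo) measured on one replicate plate set and viability (CellTiter-Glo) on the other, scaled to a negative control siRNA, with robust z-scores and luciferase per cell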
Reading the numbers: total luciferase, z-score: higher = more reporter protein produced
Rule for the call: 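An siRNA counts as active if its total luciferase robust z-score exceeds 3; genes with two or more such siRNAs out of three were retested with fresh siRNAs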
Meaning of the calls: active = raised luciferase; inactive = no rise

gene	siRNA no.	total luciferase, z-score
MTERF1 (GeneID 7978)	1	0.327
MTERF1 (GeneID 7978)	2	-1.35
MTERF1 (GeneID 7978)	3	0.422
ELF3 (GeneID 1999)	1	1.09
ELF3 (GeneID 1999)	2	0.747
ELF3 (GeneID 1999)	3	4.11 (active)
POU3F4 (GeneID 5456)	1	2.53
POU3F4 (GeneID 5456)	2	0.0802
POU3F4 (GeneID 5456)	3	0.0463
TPSD1 (GeneID 23430)	1	0.234
TPSD1 (GeneID 23430)	2	-0.717
TPSD1 (GeneID 23430)	3	2.31
WDR25 (GeneID 79446)	1	-0.987
WDR25 (GeneID 79446)	2	0.212
WDR25 (GeneID 79446)	3	-0.3
NHLRC1 (GeneID 378884)	1	0.277
NHLRC1 (GeneID 378884)	2	1.55
NHLRC1 (GeneID 378884)	3	2.25
MINPP1 (GeneID 9562)	1	-0.646
MINPP1 (GeneID 9562)	2	0.996
MINPP1 (GeneID 9562)	3	-1.58
ZNF780B (GeneID 163131)	1	2.76
ZNF780B (GeneID 163131)	2	-0.182
ZNF780B (GeneID 163131)	3	2.67

Next part, starting with the last 5 of the part before.
gene	siRNA no.	total luciferase, z-score
MINPP1 (GeneID 9562)	2	0.996
MINPP1 (GeneID 9562)	3	-1.58
ZNF780B (GeneID 163131)	1	2.76
ZNF780B (GeneID 163131)	2	-0.182
ZNF780B (GeneID 163131)	3	2.67
DNAI2 (GeneID 64446)	1	-0.838
DNAI2 (GeneID 64446)	2	-0.295
DNAI2 (GeneID 64446)	3	-0.932
MAPK1 (GeneID 5594)	1	-0.0723
MAPK1 (GeneID 5594)	2	-2.72
MAPK1 (GeneID 5594)	3	-0.588
LRRC8C (GeneID 84230)	1	-0.0528
LRRC8C (GeneID 84230)	2	-0.0027
LRRC8C (GeneID 84230)	3	-0.369
MED14 (GeneID 9282)	1	-2.1
MED14 (GeneID 9282)	2	-1.96
MED14 (GeneID 9282)	3	-2.31
PPP1R36 (GeneID 145376)	1	-1.14
PPP1R36 (GeneID 145376)	2	2.01
PPP1R36 (GeneID 145376)	3	3.8 (active)
NMU (GeneID 10874)	1	1.01
NMU (GeneID 10874)	2	1.03
NMU (GeneID 10874)	3	-1.02
LOC645481 (GeneID 645481)	1	2.42
LOC645481 (GeneID 645481)	2	-1.61
LOC645481 (GeneID 645481)	3	0.0578
SLC25A28 (GeneID 81894)	1	-1.82
SLC25A28 (GeneID 81894)	2	-0.737
SLC25A28 (GeneID 81894)	3	-1.34
CNIH3 (GeneID 149111)	1	-0.356
CNIH3 (GeneID 149111)	2	-0.624
CNIH3 (GeneID 149111)	3	0.435
RAPH1 (GeneID 65059)	1	-0.00455
RAPH1 (GeneID 65059)	2	1.26
RAPH1 (GeneID 65059)	3	2.73
ARMCX1 (GeneID 51309)	1	-0.152
ARMCX1 (GeneID 51309)	2	-0.0846
ARMCX1 (GeneID 51309)	3	1.45
